PubChem BioAssay AID743454 | Peter MacCallum Cancer Centre, 2014
Test: 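Search for knock-downs that restore vorinostat killing in resistant colon cancer cells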 (primary screen). Cell system: human HCT116-VR colon cancer cells, selected for vorinostat resistance. Reagents: siRNA pool against human genes, 40 nM siRNA pool. Duration: vorinostat for 24 h, read-out about 72 h after transfection. Challenge: vorinostat at 2.5 µM final. Read-out: 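Two measures, CellTiter-Fluor viability and luminescent caspase 3/7 activity, each as fold change against same-plate mock wells, mean of duplicates, then screen-wide robust z-score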. Scale: viability robust z-score: higher = more viable cells than screen typical; caspase robust z-score: higher = more caspase 3/7 activity than screen typical. Call rule: 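a knock-down is a hit when classed RV1 or RV2 for lowered viability, or CA1 or CA2 for caspase activation; those lethal without drug were dropped; hits were retested singly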.
The deposit covers about 18,000 reagents; this is a part drawn at random. 450 of them (2.5%) were called active. 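Single biological run; no consistent viability z cut-off exists, so the class columns, not z-scores, define the calls.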

no.	gene symbol	viability hit class	caspase hit class	viability robust z-score	caspase robust z-score	activity call
1	EZR (GeneID 7430)	no change	no change	-1.14	1.06	inactive
2	BSND (GeneID 7809)	no change	no change	-0.44	0.55	inactive
3	RNASE1 (GeneID 6035)	no change	no change	-0.21	0.06	inactive
4	DDB2 (GeneID 1643)	no change	no change	0.87	-0.6	inactive
5	ENTREP1 (GeneID 9413)	no change	no change	-0.7	-0.4	inactive
6	MMUT (GeneID 4594)	no change	no change	0.62	-0.93	inactive
7	MYBBP1A (GeneID 10514)	no change	no change	-1.12	-0.69	inactive
8	SERTM1 (GeneID 400120)	no change	no change	-0.48	0.9	inactive
9	F12 (GeneID 2161)	no change	no change	-1.4	1.88	inactive
10	CDH1 (GeneID 999)	no change	no change	1.49	0.08	inactive
11	IFRD1 (GeneID 3475)	no change	no change	0.89	-0.97	inactive
12	LYAR (GeneID 55646)	no change	no change	-0.83	0.05	inactive
13	IRAK3 (GeneID 11213)	no change	no change	-0.92	1.98	inactive
14	ZFP42 (GeneID 132625)	no change	no change	-0.48	-0.3	inactive
15	LGALS2 (GeneID 3957)	no change	no change	-0.16	-0.83	inactive
16	SAMD3 (GeneID 154075)	no change	no change	-1.01	-0.65	inactive
17	IL19 (GeneID 29949)	no change	no change	0.01	-0.16	inactive
18	NAALADL1 (GeneID 10004)	no change	no change	-0.48	1.48	inactive
19	PTPRH (GeneID 5794)	no change	no change	-0.99	-0.64	inactive
20	ABHD16A (GeneID 7920)	no change	no change	0.26	0.56	inactive
21	PTOV1 (GeneID 53635)	no change	no change	-1.07	1.77	inactive
22	GATD1 (GeneID 347862)	no change	no change	0.24	0.21	inactive
23	PCDHGA2 (GeneID 56113)	no change	no change	-0.05	2.67	inactive
24	ZSWIM8 (GeneID 23053)	no change	no change	-1.25	-0.63	inactive
25	KRTAP5-7 (GeneID 440050)	no change	no change	-1.44	2.19	inactive
26	TONSL (GeneID 4796)	no change	no change	0.34	1.4	inactive
27	MEIG1 (GeneID 644890)	no change	no change	0.34	-0.99	inactive
28	OR2V2 (GeneID 285659)	no change	no change	0.54	-0.38	inactive
29	PSMB10 (GeneID 5699)	no change	no change	-0.58	1.84	inactive
30	MED7 (GeneID 9443)	no change	no change	-0.88	1.65	inactive
31	RPL11 (GeneID 6135)	no change	no change	-2.99	-0.6	inactive
32	ROM1 (GeneID 6094)	no change	no change	-0.34	-0.34	inactive
33	RLIM (GeneID 51132)	no change	no change	0.73	0.06	inactive
34	CYBA (GeneID 1535)	no change	no change	-0.56	-0.83	inactive
35	TKFC (GeneID 26007)	no change	no change	0.46	2.69	inactive
36	CYB561D1 (GeneID 284613)	no change	no change	-0.94	0.6	inactive
37	GPR101 (GeneID 83550)	RV2 (reduced viability)	no change	-3.34	-0.15	active
38	ZNF331 (GeneID 55422)	no change	no change	-0.06	1.29	inactive
39	FAM50A (GeneID 9130)	no change	no change	0.82	1.84	inactive
40	USP39 (GeneID 10713)	no change	no change	-1.9	1.43	inactive
41	SCAF8 (GeneID 22828)	no change	no change	-0.14	0.4	inactive
42	STRAP (GeneID 11171)	no change	no change	-1.12	2.44	inactive
43	FOXC1 (GeneID 2296)	no change	no change	0.63	0.2	inactive
44	SFXN3 (GeneID 81855)	no change	no change	-0.38	-0.05	inactive
45	MYL2 (GeneID 4633)	no change	no change	0.51	0.18	inactive
46	LCP1 (GeneID 3936)	no change	no change	0.18	0.71	inactive
47	PDLIM5 (GeneID 10611)	no change	no change	1.36	1.46	inactive
48	KRTAP4-1 (GeneID 85285)	no change	no change	-1.54	2.73	inactive
49	KIF3A (GeneID 11127)	no change	no change	0.61	0.3	inactive
50	PLA2G2A (GeneID 5320)	no change	no change	-0.73	0.16	inactive
51	CMTR1 (GeneID 23070)	no change	no change	-0.58	-0.65	inactive
52	NRAS (GeneID 4893)	no change	no change	0.5	0.12	inactive
53	SNX7 (GeneID 51375)	no change	no change	0.06	2.42	inactive
54	GRHL2 (GeneID 79977)	no change	no change	0.1	0.86	inactive
55	NWD1 (GeneID 284434)	no change	no change	-1.18	-0.91	inactive
56	PIGK (GeneID 10026)	no change	no change	-0.9	0.62	inactive
57	EIF4EBP1 (GeneID 1978)	no change	no change	1.15	2.11	inactive

10 entries already listed, sorted by “caspase robust z-score”, low to high.
gene symbol	viability hit class	caspase hit class	viability robust z-score	caspase robust z-score	activity call
IFRD1 (GeneID 3475)	no change	no change	0.89	-0.97	inactive
LGALS2 (GeneID 3957)	no change	no change	-0.16	-0.83	inactive
SAMD3 (GeneID 154075)	no change	no change	-1.01	-0.65	inactive
PTPRH (GeneID 5794)	no change	no change	-0.99	-0.64	inactive
ZFP42 (GeneID 132625)	no change	no change	-0.48	-0.3	inactive
IL19 (GeneID 29949)	no change	no change	0.01	-0.16	inactive
LYAR (GeneID 55646)	no change	no change	-0.83	0.05	inactive
ABHD16A (GeneID 7920)	no change	no change	0.26	0.56	inactive
NAALADL1 (GeneID 10004)	no change	no change	-0.48	1.48	inactive
IRAK3 (GeneID 11213)	no change	no change	-0.92	1.98	inactive
